The assay addresses Bax (human (endogenous in A549 and H1299)) (UniProt Q07812). The assay can be described thus: co-IP; endogenous Bax immunoprecipitated with anti-Bax antibody coupled to Dynabeads M-270 Epoxy from A549 or H1299 cell lysates, rotated at 4 °C for 2 h; western blotting; also from USP30 knock-down H1299 cells (binding decreased).

The chains behind the UniProt entries cited, without tags or fusion partners.
UniProt Q07812: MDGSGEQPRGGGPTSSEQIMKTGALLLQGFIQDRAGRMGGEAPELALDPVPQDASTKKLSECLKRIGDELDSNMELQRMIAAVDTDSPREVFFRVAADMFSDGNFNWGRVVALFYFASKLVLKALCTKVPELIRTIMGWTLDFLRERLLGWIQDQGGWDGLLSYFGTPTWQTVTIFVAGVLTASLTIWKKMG

Results are given in words; binding and its absence hold for the method and conditions named. Binding seen in cells or lysates may run through a third protein.

B1: USP15 (enzyme, UniProt Q9Y4E8 1-981)
chain: MAEGGAADLDTQRSDIATLLKTSLRKGDTWYLVDSRWFKQWKKYVGFDSWDKYQMGDQNVYPGPIDNSGLLKDGDAQSLKEHLIDELDYILLPTEGWNKLVSWYTLMEGQEPIARKVVEQGMFVKHCKVEVYLTELKLCENGNMNNVVTRRFSKADTIDTIEKEIRKIFSIPDEKETRLWNKYMSNTFEPLNKPDSTIQDAGLYQGQVLVIEQKNEDGTWPRGPSTPKSPGASNFSTLPKISPSSLSNNYNNMNNRNVKNSNYCLPSYTAYKNYDYSEPGRNNEQPGLCGLSNLGNTCFMNSAIQCLSNTPPLTEYFLNDKYQEELNFDNPLGMRGEIAKSYAELIKQMWSGKFSYVTPRAFKTQVGRFAPQFSGYQQQDCQELLAFLLDGLHEDLNRIRKKPYIQLKDADGRPDKVVAEEAWENHLKRNDSIIVDIFHGLFKSTLVCPECAKISVTFDPFCYLTLPLPMKKERTLEVYLVRMDPLTKPMQYKVVVPKIGNILDLCTALSALSGIPADKMIVTDIYNHRFHRIFAMDENLSSIMERDDIYVFEININRTEDTEHVIIPVCLREKFRHSSYTHHTGSSLFGQPFLMAVPRNNTEDKLYNLLLLRMCRYVKISTETEETEGSLHCCKDQNINGNGPNGIHEEGSPSEMETDEPDDESSQDQELPSENENSQSEDSVGGDNDSENGLCTEDTCKGQLTGHKKRLFTFQFNNLGNTDINYIKDDTRHIRFDDRQLRLDERSFLALDWDPDLKKRYFDENAAEDFEKHESVEYKPPKKPFVKLKDCIELFTTKEKLGAEDPWYCPNCKEHQQATKKLDLWSLPPVLVVHLKRFSYSRYMRDKLDTLVDFPINDLDMSEFLINPNAGPCRYNLIAVSNHYGGMGGGHYTAFAKNKDDGKWYYFDDSSVSTASEDQIVSKAAYVLFYQRQDTFSGTGFFPLDRETKGASAATGIPLESDEDSNDNDNDIENENCMHTN
In the case of B1, the binding result is “no binding”.
